# Source: the supplement of paper PMC6411743
# Sequences of proteins named here, by UniProt entry; tags and fusion partners are left off. A change or cut given only in a name is not applied to a line headed by its entry.
# UniProt Q6PIZ9: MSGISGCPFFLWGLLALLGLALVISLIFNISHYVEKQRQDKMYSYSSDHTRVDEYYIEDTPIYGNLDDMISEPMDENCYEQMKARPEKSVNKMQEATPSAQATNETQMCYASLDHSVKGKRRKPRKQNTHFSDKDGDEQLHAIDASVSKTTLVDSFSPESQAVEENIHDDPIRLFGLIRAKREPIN
# UniProt Q9Y5U2: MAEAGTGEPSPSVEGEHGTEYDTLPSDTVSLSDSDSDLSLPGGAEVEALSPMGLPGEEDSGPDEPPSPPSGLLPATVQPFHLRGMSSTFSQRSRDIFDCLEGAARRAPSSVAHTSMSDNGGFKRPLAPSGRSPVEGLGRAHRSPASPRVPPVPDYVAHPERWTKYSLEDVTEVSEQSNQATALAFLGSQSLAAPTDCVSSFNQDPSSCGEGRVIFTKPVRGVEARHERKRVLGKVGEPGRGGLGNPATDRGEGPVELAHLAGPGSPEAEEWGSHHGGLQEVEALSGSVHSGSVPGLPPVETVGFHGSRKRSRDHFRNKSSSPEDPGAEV
# UniProt P48444: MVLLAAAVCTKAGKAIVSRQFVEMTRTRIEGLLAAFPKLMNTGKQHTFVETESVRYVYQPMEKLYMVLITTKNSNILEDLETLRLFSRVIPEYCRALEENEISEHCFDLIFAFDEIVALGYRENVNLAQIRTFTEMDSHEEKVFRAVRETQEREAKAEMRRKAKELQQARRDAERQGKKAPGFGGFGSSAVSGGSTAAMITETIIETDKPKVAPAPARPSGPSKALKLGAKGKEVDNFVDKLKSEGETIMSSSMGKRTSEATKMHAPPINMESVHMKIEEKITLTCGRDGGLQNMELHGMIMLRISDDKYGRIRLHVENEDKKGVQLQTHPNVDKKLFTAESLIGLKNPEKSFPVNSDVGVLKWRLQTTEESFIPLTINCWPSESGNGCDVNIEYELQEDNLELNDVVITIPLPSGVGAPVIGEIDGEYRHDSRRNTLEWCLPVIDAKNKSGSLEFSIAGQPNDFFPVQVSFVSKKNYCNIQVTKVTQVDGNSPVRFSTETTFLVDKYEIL
# UniProt Q9Y2K5: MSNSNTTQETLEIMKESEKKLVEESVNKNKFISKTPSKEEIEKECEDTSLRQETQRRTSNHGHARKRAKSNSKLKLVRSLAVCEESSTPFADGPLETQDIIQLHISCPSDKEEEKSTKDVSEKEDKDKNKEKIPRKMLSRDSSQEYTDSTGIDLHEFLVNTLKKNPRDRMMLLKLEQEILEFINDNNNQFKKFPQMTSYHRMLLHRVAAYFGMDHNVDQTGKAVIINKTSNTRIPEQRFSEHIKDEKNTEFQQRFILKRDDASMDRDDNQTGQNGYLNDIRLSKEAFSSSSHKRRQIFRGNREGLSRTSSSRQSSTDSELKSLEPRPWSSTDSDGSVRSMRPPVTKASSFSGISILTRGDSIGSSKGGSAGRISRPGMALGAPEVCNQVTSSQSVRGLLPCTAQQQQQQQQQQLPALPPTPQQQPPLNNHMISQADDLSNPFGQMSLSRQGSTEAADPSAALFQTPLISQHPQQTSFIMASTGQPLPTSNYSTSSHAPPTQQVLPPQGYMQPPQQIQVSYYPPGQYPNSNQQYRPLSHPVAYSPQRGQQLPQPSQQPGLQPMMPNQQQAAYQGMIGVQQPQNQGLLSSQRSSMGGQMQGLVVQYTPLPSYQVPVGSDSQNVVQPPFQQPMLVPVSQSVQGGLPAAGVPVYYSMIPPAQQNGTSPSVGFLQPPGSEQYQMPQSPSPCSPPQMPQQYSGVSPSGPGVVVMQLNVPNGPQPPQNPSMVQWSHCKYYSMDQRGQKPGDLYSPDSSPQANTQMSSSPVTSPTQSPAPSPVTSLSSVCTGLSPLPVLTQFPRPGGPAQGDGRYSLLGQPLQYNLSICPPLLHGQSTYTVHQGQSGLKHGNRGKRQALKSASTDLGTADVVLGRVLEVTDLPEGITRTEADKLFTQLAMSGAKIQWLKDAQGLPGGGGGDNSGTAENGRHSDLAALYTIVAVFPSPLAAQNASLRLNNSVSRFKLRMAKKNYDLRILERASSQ
# UniProt O75817: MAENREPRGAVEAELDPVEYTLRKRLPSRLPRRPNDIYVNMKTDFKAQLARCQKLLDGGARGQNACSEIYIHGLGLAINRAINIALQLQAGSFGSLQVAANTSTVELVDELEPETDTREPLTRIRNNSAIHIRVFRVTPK
# UniProt P55196: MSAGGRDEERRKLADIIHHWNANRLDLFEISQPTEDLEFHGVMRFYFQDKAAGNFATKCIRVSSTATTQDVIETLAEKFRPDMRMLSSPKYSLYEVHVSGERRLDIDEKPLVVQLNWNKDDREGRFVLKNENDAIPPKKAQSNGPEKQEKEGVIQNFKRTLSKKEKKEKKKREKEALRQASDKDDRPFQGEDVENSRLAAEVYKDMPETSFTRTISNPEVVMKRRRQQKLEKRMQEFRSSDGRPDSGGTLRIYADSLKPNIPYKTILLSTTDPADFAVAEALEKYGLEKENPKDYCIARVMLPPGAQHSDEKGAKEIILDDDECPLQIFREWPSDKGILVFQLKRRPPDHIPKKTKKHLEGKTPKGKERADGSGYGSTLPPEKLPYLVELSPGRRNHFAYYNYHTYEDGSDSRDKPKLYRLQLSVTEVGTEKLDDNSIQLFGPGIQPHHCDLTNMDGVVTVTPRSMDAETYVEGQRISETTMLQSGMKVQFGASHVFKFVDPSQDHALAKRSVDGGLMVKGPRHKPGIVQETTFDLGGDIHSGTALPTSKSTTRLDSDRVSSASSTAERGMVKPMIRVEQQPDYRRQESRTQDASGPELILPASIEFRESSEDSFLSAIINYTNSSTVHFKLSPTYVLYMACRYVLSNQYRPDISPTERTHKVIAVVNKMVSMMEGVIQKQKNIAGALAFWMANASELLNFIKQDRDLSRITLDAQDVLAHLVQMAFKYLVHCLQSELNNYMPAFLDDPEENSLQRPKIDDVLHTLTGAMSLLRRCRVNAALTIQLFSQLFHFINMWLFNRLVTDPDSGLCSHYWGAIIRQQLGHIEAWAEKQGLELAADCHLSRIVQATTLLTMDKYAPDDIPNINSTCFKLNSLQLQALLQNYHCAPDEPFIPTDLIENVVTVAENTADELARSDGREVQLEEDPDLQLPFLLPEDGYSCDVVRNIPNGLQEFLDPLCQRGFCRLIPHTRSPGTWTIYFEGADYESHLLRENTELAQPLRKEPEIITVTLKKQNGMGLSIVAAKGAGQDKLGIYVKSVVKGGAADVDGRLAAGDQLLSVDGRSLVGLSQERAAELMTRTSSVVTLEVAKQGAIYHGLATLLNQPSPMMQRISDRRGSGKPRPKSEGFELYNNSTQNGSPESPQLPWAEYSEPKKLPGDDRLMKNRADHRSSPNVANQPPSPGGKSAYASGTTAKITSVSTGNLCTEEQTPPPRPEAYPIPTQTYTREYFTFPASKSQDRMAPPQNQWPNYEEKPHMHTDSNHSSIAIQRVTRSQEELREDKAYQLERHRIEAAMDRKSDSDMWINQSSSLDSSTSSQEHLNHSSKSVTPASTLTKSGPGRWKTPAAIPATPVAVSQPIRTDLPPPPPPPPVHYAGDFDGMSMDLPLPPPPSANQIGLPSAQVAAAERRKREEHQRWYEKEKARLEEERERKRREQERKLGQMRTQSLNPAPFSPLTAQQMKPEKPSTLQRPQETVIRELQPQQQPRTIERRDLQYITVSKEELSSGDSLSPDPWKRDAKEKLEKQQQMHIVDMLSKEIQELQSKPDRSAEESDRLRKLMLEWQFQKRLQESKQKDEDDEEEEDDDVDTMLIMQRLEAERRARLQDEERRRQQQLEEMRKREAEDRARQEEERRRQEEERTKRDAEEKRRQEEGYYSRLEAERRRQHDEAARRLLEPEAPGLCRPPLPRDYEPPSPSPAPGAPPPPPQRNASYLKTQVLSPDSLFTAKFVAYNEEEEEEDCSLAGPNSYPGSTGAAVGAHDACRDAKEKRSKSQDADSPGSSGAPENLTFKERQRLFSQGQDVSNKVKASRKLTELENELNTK
# UniProt P51965: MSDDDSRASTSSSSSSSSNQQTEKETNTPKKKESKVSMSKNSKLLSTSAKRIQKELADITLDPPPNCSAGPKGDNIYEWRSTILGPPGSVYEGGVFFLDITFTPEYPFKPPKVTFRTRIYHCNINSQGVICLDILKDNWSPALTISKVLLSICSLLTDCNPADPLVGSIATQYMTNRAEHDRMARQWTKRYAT
# UniProt Q13614, whole entry: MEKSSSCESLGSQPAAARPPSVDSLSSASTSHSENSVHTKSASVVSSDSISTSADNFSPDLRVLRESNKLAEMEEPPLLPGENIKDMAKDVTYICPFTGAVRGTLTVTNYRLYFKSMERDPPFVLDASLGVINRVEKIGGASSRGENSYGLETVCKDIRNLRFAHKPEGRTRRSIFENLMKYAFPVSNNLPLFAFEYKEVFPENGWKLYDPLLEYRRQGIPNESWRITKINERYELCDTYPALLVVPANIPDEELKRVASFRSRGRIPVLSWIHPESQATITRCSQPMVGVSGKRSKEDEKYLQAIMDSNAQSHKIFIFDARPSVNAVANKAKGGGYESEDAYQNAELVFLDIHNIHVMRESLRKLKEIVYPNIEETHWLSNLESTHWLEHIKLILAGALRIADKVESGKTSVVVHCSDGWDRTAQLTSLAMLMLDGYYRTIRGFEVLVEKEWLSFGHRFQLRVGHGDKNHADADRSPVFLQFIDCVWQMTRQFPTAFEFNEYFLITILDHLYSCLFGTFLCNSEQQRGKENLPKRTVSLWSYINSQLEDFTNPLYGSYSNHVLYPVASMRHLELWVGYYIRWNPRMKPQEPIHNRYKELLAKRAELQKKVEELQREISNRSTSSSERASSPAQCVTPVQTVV
# UniProt Q9NZK5: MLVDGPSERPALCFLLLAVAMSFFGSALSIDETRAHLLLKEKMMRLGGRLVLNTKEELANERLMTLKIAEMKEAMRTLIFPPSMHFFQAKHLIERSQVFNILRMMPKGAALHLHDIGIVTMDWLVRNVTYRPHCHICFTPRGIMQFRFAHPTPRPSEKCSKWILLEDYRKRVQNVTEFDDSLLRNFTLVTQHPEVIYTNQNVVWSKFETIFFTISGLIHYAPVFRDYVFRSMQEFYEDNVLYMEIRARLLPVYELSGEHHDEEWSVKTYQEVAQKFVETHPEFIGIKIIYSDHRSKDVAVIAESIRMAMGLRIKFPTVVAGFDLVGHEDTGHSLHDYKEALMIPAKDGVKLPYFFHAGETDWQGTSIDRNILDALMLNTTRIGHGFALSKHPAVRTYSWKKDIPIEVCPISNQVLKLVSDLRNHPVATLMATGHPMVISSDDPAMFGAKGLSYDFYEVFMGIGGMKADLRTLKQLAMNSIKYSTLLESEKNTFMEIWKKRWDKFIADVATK
# UniProt Q0PNE2: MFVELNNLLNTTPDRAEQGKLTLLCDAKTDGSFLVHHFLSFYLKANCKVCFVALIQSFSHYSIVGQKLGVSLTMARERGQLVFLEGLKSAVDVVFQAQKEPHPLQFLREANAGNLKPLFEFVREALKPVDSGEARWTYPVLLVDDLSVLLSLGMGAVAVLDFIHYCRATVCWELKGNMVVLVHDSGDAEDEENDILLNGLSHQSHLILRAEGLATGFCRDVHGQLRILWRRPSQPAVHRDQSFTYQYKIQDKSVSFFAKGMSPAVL
# UniProt Q9H6K4: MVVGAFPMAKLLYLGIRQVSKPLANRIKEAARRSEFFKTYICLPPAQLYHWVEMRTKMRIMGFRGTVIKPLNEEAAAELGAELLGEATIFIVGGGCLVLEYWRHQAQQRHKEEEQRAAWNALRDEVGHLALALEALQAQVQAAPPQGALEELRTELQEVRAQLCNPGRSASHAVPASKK
# ± gives the standard deviation of the averaged measurements. The list shows a part of the results, in another mix than the full data.
# Compound: Nc1ncnc2c1ncn2[C@@H]1O[C@H](COP(=O)(O)OP(=O)(O)NP(=O)(O)O)[C@@H](O)[C@H]1O [adenylyl imidodiphosphate]
# Test: NP40-soluble protein abundance relative to vehicle (solubility fold change) (ratio); higher = more soluble protein in presence of AMP-PNP
# Method in brief: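 In three independent experiments, Jurkat crude lysate made by Dounce homogenisation was treated for 10 min at room temperature and then 3 min at 37 °C with eight concentrations ranging from 0.1 to 10 mM. It was then solubilised with 0.8% NP40 plus benzonase for 60 min at 4 °C and ultracentrifuged. The supernatant was TMT-labelled for LC-MS/MS, and each value is the fold change against the detergent-processed vehicle for the same replicate, using vsn-normalised intensities.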
Target,NP40-soluble protein abundance (concentration: 1mM),NP40-soluble protein abundance (concentration: 2mM),NP40-soluble protein abundance (concentration: 4mM),NP40-soluble protein abundance (concentration: 6mM),NP40-soluble protein abundance (concentration: 8mM),NP40-soluble protein abundance (concentration: 10mM)
C9JF66 and related entries (UniProt Q6PIZ9),1.01 ± 0.022,1.03 ± 0.062,1 ± 0.039,0.987 ± 0.029,0.966 ± 0.052,0.961 ± 0.013
D6RCD0 and related entries (UniProt Q8NBQ5),0.995 ± 0.031,0.9738 ± 0.0077,1.01 ± 0.047,1.06 ± 0.079,1.04 ± 0.056,1.04 ± 0.064
C9JJV1 and related entries (UniProt Q9Y5U2),1.01 ± 0.013,1.04 ± 0.076,1.01 ± 0.01,0.968 ± 0.047,0.951 ± 0.048,0.968 ± 0.068
B0YIW6 and related entries (UniProt P48444),0.98 ± 0.015,0.931 ± 0.045,0.949 ± 0.01,0.9391 ± 0.0089,0.9554 ± 0.0037,0.921 ± 0.017
CCDC88B (UniProt A6NC98),1.04 ± 0.018,1.06 ± 0.067,1.05 ± 0.046,0.99434 ± 0.00087,0.979 ± 0.036,1 ± 0.046
B2RA97 and related entries (UniProt Q9Y5N5),1 ± 0.032,1 ± 0.014,0.982 ± 0.048,0.996 ± 0.042,1.016 ± 0.0014,1.01 ± 0.032
D6RF48 and related entries (UniProt Q9P2W9),1.01 ± 0.026,1.03 ± 0.032,0.97 ± 0.021,0.973 ± 0.059,0.956 ± 0.034,0.954 ± 0.015
B5MCU0 (UniProt Q9Y2K5),0.998 ± 0.022,1 ± 0.024,1.01 ± 0.015,1.0031 ± 0.00071,0.9985 ± 0.0069,0.998 ± 0.0095
C9JYM0 and related entries (UniProt O75817),0.987 ± 0.029,0.983 ± 0.048,1.04 ± 0.098,1.01 ± 0.038,1.0179 ± 0.0003,1.02 ± 0.047
A8MQ02 and related entries (UniProt P55196),1.03 ± 0.015,1.04 ± 0.02,1.04 ± 0.035,1 ± 0.018,0.991 ± 0.011,1.02 ± 0.027
B3KUS5 and related entries (UniProt Q70CQ3),0.966 ± 0.032,0.944 ± 0.059,0.97 ± 0.011,0.965 ± 0.026,0.972 ± 0.047,0.952 ± 0.056
C9J2P0 and related entries (UniProt P51965),0.972 ± 0.012,0.9512 ± 0.0055,0.952 ± 0.029,0.9728 ± 0.0083,0.967 ± 0.038,0.958 ± 0.05
UNC119B (UniProt A6NIH7),1.04 ± 0.022,0.988 ± 0.029,1.01 ± 0.031,1.01 ± 0.061,0.994 ± 0.05,1.01 ± 0.05
B1AKP1 and related entries (UniProt O60636),1.04 ± 0.016,1.02 ± 0.019,1.034 ± 0.0076,1.02 ± 0.011,1.01 ± 0.029,1.01 ± 0.014
C9J7Z4 and related entries (UniProt Q8NCE0),0.984 ± 0.028,1.003 ± 0.0083,1.01 ± 0.021,0.998 ± 0.038,0.9859 ± 0.0091,0.979 ± 0.029
B5MCS2 and related entries (UniProt Q8WTS6),0.93 ± 0.076,0.946 ± 0.039,0.946 ± 0.043,0.954 ± 0.032,0.957 ± 0.022,0.936 ± 0.042
B4DWF2 and related entries (UniProt Q9UKS7),0.968 ± 0.033,0.945 ± 0.044,0.947 ± 0.033,0.939 ± 0.047,0.944 ± 0.058,0.968 ± 0.048
C9JEX3 and related entries (UniProt Q13614),1 ± 0.012,0.9881 ± 0.003,0.988 ± 0.015,1.01 ± 0.042,0.98 ± 0.027,1.01 ± 0.016
FAM171A2 (UniProt A8MVW0),1 ± 0.012,1.01 ± 0.051,1.01 ± 0.013,1.05 ± 0.018,0.998 ± 0.027,1.019 ± 0.0036
C9JBI3 and related entries (UniProt P78330),1.03 ± 0.046,1.04 ± 0.048,1.03 ± 0.049,0.988 ± 0.017,0.965 ± 0.017,0.991 ± 0.036
C9J2Y9 and related entries (UniProt P30876),0.97 ± 0.011,0.887 ± 0.1,0.941 ± 0.042,0.933 ± 0.051,0.956 ± 0.065,0.919 ± 0.094
C9JRJ5 and related entries (UniProt Q9UGP4),1.07 ± 0.047,1.13 ± 0.12,1.049 ± 0.0098,1.01 ± 0.048,1.01 ± 0.033,1.03 ± 0.035
D3DSM0 and related entries (UniProt P05107),1.01 ± 0.05,1.08 ± 0.073,1.01 ± 0.043,0.973 ± 0.019,0.961 ± 0.025,0.981 ± 0.04
B4E3Q4 and related entries (UniProt Q9NZK5),0.982 ± 0.022,0.941 ± 0.012,0.9915 ± 0.0066,0.982 ± 0.057,1.03 ± 0.044,0.969 ± 0.013
D3YTB5 and related entries (UniProt P51617),1.01 ± 0.016,1.01 ± 0.036,1.01 ± 0.02,1.01 ± 0.024,1.032 ± 0.0077,1.01 ± 0.01
B8ZZA8 and related entries (UniProt O94925),0.9755 ± 0.0052,0.925 ± 0.048,0.9629 ± 0.0063,0.968 ± 0.031,0.976 ± 0.04,0.955 ± 0.019
C9IYN7 and related entries (UniProt Q0PNE2),0.944 ± 0.058,0.905 ± 0.071,0.931 ± 0.11,0.949 ± 0.053,0.998 ± 0.07,0.947 ± 0.085
A6NCE7 and related entries (UniProt Q9GZQ8+H3BTL1+A6NCE7),1.01 ± 0.038,1.018 ± 0.0085,1.05 ± 0.038,0.982 ± 0.028,1.02 ± 0.028,1.02 ± 0.049
B4DK77 and related entries (UniProt Q9H6K4),1 ± 0.035,1.03 ± 0.11,0.993 ± 0.047,1.01 ± 0.046,1.04 ± 0.031,1 ± 0.1
E5RGT2 and related entries (UniProt Q96MH6),0.992 ± 0.035,0.942 ± 0.076,0.999 ± 0.027,0.969 ± 0.046,1.01 ± 0.07,0.991 ± 0.049

# Two entries picked at random from the list so far, as already listed:
Target,NP40-soluble protein abundance (concentration: 1mM),NP40-soluble protein abundance (concentration: 2mM),NP40-soluble protein abundance (concentration: 4mM),NP40-soluble protein abundance (concentration: 6mM),NP40-soluble protein abundance (concentration: 8mM),NP40-soluble protein abundance (concentration: 10mM)
C9J2Y9 and related entries (UniProt P30876),0.97 ± 0.011,0.887 ± 0.1,0.941 ± 0.042,0.933 ± 0.051,0.956 ± 0.065,0.919 ± 0.094
C9JF66 and related entries (UniProt Q6PIZ9),1.01 ± 0.022,1.03 ± 0.062,1 ± 0.039,0.987 ± 0.029,0.966 ± 0.052,0.961 ± 0.013
